PubChem BioAssay AID720505, Drosophila RNAi Screening Center – 2013
Screen: 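Fly regulators or components of the CRAC channel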 (primary screen). Cell system: Drosophila S2R+ cells. Reagents: long dsRNA against Drosophila genes. Treatment: thapsigargin (2 µM) in calcium-free buffer to empty internal stores, then 2 mM calcium added back. Measured: 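Stores emptied by 2 µM thapsigargin without calcium, then 2 mM calcium re-added; fluo-4 fluorescence followed by FLIPR in 384-well plates, per-well averaged endpoint, raw; two screen passes, some wells retested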. Direction: calcium signal and retest calcium signal: higher = more calcium entry after store depletion. Rule for the call: 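About 1500 genes called as lowering calcium entry, by varying amounts, judged against per-plate control wells with STIM1 as positive and Rho1 as negative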. Calls: active = called as lowering calcium entry; inactive = not called.
The deposit covers about 20,000 reagents; shown is an unselected part of those that have a named target and a result. Over the whole deposit, about 2,100 (10%) were called active. 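Raw plate signals without normalisation; calls rest on control-based scores that were not deposited; replicate 2 separates called from uncalled poorly.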 A plus sign joins genes that one reagent is predicted to hit. No sequences are given here. The record does not give: the amount of reagent, the time to read-out.

gene,amplicon,"calcium signal, replicate 1","calcium signal, replicate 2","retest calcium signal, replicate 1","retest calcium signal, replicate 2",Outcome
Cyp313b1,DRSC16629,98.9,212,,,inactive
magu,DRSC06832,190,168,,,inactive
CG17580,DRSC06683,99.6,164,,,inactive
ase,DRSC18739,73.8,78.6,,,active
ix,DRSC06325,109,136,,,inactive
croc,DRSC11884,76.6,163,,,inactive
Fer1,DRSC12507,98,141,,,inactive
Fer1,DRSC12555,111,180,,,inactive
Dop1R2,DRSC15379,157,111,,,inactive
amon,DRSC13784,,,,,inactive
amon,DRSC16900,98.2,81.2,6404,138,inactive
CG1092,DRSC12151,137,124,,,inactive
Zip102B,DRSC17155,104,130,101,82.8,inactive
CycE,DRSC03295,71.4,88.7,,,inactive
CycE,DRSC03296,108,130,,,inactive
CG3703,DRSC18172,101,145,,,inactive
CG3703,DRSC18173,104,151,,,inactive
CG3703,DRSC18643,118,156,,,inactive
tok,DRSC17087,213,206,,,inactive
pen-2,DRSC05722,75.6,76.6,,,active
CG12017,DRSC08225,94.3,91.2,,,inactive
egl,DRSC04682,140,279,,,inactive
alpha-Cat,DRSC11917,63.9,115,143,86,active
Gyc32E,DRSC01154,241,121,,,inactive
HipHop,DRSC10734,101,81.4,,,inactive
Sgs1,DRSC00787,71.7,148,,,active
Sgs1,DRSC00848,66.8,147,,,active
Mst84Dc,DRSC12599,55.3,153,,,active
sr,DRSC17067,150,139,,,inactive
CG43072,DRSC11688,79.7,111,,,inactive
MED31,DRSC12142,121,76.8,,,inactive
CG4911,DRSC10456,65.3,75.6,,,active
sca,DRSC07677,96.4,176,,,inactive
Treh,DRSC04548,181,101,,,inactive
CG8708,DRSC07240,202,211,,,inactive
Aasdh,DRSC03467,173,129,,,inactive
gpp,DRSC12515,93.7,113,,,inactive
gpp,DRSC12516,161,172,,,inactive

The list goes on (11 carried over from the part before).
gene,amplicon,"calcium signal, replicate 1","calcium signal, replicate 2","retest calcium signal, replicate 1","retest calcium signal, replicate 2",Outcome
Mst84Dc,DRSC12599,55.3,153,,,active
sr,DRSC17067,150,139,,,inactive
CG43072,DRSC11688,79.7,111,,,inactive
MED31,DRSC12142,121,76.8,,,inactive
CG4911,DRSC10456,65.3,75.6,,,active
sca,DRSC07677,96.4,176,,,inactive
Treh,DRSC04548,181,101,,,inactive
CG8708,DRSC07240,202,211,,,inactive
Aasdh,DRSC03467,173,129,,,inactive
gpp,DRSC12515,93.7,113,,,inactive
gpp,DRSC12516,161,172,,,inactive
ApepP,DRSC01866,52.2,129,,,active
Nse4,DRSC02239,143,159,,,inactive
CDase,DRSC14932,108,113,,,inactive
wcd,DRSC07051,185,110,,,inactive
Ass + CG31286,DRSC12493,112,156,,,inactive
ouib,DRSC14376,98.6,173,,,inactive
COX4,DRSC02091,105,99,,,inactive
Dp1,DRSC07403,105,92.5,,,inactive
Cul2,DRSC03710,145,122,,,inactive
ITP,DRSC04222,148,245,,,inactive
vg,DRSC07715,98.7,143,133,107,inactive
vg,DRSC22669,83.8,110,,,inactive
Alg11,DRSC11647,135,95.4,,,inactive
CG11563,DRSC14327,79.5,127,,,inactive
SK,DRSC17751,107,88.3,,,inactive
SK,DRSC17887,122,79,,,inactive
SK,DRSC17888,122,107,,,inactive
SK,DRSC18353,88.7,76.5,,,inactive
SK,DRSC21840,86.2,147,,,inactive
ND-ACP,DRSC08724,99.2,155,,,inactive
Pex13,DRSC06877,125,136,,,inactive
Polr2A,DRSC20280,77,35.2,,,active
Cdk9,DRSC04601,62.2,170,,,active
CG7778,DRSC03067,164,226,,,inactive
CG46339,DRSC14136,136,157,,,inactive
Ndf,DRSC02775,111,95.8,,,inactive
CG14273,DRSC02377,171,174,,,inactive
Or33a,DRSC03386,73.2,103,,,active
Wdr59,DRSC02771,111,106,,,inactive
Prdm13,DRSC09970,110,86.2,,,inactive
CG16719,DRSC10222,76.4,73.9,,,inactive
MED17,DRSC16889,132,177,,,inactive
nonA-l,DRSC17017,169,132,,,inactive
Pus7,DRSC10703,101,92.3,,,inactive
CG33096,DRSC14440,240,213,,,inactive
CG42747,DRSC10209,84.7,84.7,,,inactive
CG42747,DRSC10210,90.1,58.4,,,inactive
Cog7,DRSC16331,157,129,,,inactive
comt,DRSC20319,66.2,78.7,,,active
dan,DRSC14406,243,304,,,inactive
CG8197,DRSC07105,110,115,,,inactive
CG13229,DRSC06349,94.8,105,,,inactive
otk,DRSC07658,111,175,,,inactive
Art1,DRSC16063,121,105,,,inactive
EndoGI,DRSC01964,98.7,88.7,,,inactive
